# Test results from publication PMC4628094, “In Vitro Assessment of Uptake and Lysosomal Sequestration of Respiratory Drugs in Alveolar Macrophage Cell Line NR8383” (Pharmaceutical Research, 2015).
# How the values were obtained:
# [1] = Physicochemical properties, experimental literature values (Table I); details: classification in Table I
# [2] = test system: Lung tissue slices from male Sprague-Dawley rats; details: desipramine, diazepam 5 µM, chloroquine, thiopental 10 µM, 60 min, ref (3), cited from earlier work
Structure (SMILES),Acid–base Property [1],Reduction in total uptake (%) ([2]; NH4Cl 20 mM),Reduction of total uptake (%) ([2]; monensin 10 µM)
CC(C)[N+]1(C)[C@@H]2CC[C@H]1C[C@@H](OC(=O)C(CO)c1ccccc1)C2 (stereo partly drawn) [Ipratropium bromide],Permanently cationic,,
CN1C(=O)CN=C(c2ccccc2)c2cc(Cl)ccc21 [Diazepam],,2.6,1.8
